Measured values reported in publication PMC5965902.
Results are given in words; binding and its absence hold for the method and conditions named. Some results given as binding are weak or reduced against the parent protein; the word gives no strength.

T1: RitR (Repressor of iron transport Regulator), wild type (Streptococcus pneumoniae strain R800), A0ACD7
T1 chain: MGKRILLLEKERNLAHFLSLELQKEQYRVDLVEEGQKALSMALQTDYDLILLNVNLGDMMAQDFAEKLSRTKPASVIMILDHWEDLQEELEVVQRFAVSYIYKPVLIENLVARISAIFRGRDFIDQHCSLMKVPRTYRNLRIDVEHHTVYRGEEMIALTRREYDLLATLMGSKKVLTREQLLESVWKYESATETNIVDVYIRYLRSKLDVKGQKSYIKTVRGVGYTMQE

B1: RitR (Repressor of iron transport Regulator), wild type, A0ACD7PPZ9 1-229 (protein)
chain: MGKRILLLEKERNLAHFLSLELQKEQYRVDLVEEGQKALSMALQTDYDLILLNVNLGDMMAQDFAEKLSRTKPASVIMILDHWEDLQEELEVVQRFAVSYIYKPVLIENLVARISAIFRGRDFIDQHCSLMKVPRTYRNLRIDVEHHTVYRGEEMIALTRREYDLLATLMGSKKVLTREQLLESVWKYESATETNIVDVYIRYLRSKLDVKGQKSYIKTVRGVGYTMQE

How the values were obtained:
[1] = molecular target: RitR (Repressor of iron transport Regulator), wild type (Streptococcus pneumoniae strain R800); test: 2D 1H-15N HSQC NMR; 15N-labelled wild-type RitR, 360 μM, DTT titrated to 10 mM; both purified
[2] = molecular target: RitR (Repressor of iron transport Regulator), wild type (Streptococcus pneumoniae strain R800); test: SEC; BioBasic SEC-300A, 10 mM TRIS pH 6.5, 150 mM NaCl, 100 mM malic acid; no DTT and no H2O2; both purified
[3] = molecular target: RitR (Repressor of iron transport Regulator), wild type (Streptococcus pneumoniae strain R800); test: as above; remark: listed apart in the source
[4] = molecular target: RitR (Repressor of iron transport Regulator), wild type (Streptococcus pneumoniae strain R800); test: SEC; BioBasic SEC-300A, 10 mM TRIS pH 6.5, 150 mM NaCl, 100 mM malic acid; reduced sample, 1 mM DTT added; both purified
[5] = molecular target: RitR (Repressor of iron transport Regulator), wild type (Streptococcus pneumoniae strain R800); test: condition: only with 1 mM iron, magnesium, zinc, calcium or manganese, no oxidant; SEC; wild-type RitR 116 μM pre-incubated with 1 mM iron, magnesium, zinc, calcium or manganese; conditions as for Fig 2; both purified
[6] = molecular target: T1, RitR (Repressor of iron transport …); test: 2D 1H-15N HSQC NMR; 15N-labelled protein, 360 μM, no DTT; both purified; conditions: remark: other sources report otherwise
[7] = molecular target: T1, RitR (Repressor of iron transport …); test: SEC; wild-type RitR 116 μM pre-incubated with 1 mM CuCl2; conditions as for Fig 2; both purified; conditions: remark: other sources report otherwise
[8] = molecular target: T1, RitR (Repressor of iron transport …); test: SEC; BioBasic SEC-300A, 10 mM TRIS pH 6.5, 150 mM NaCl, 100 mM malic acid; 200 μM RitR exposed to 1 mM H2O2 for 3 h; both purified; conditions: remark: other sources report otherwise
[9] = molecular target: T1, RitR (Repressor of iron transport …); test: crystal structure; RitROX: RitR treated with 1 mM H2O2, dimer peak from SEC; crystals from PEG 3350, magnesium sulfate, with 1 mM H2O2, pH 6.5; both purified; conditions: remark: other sources report otherwise
[10] = molecular target: T1, RitR (Repressor of iron transport …); test: non-reducing SDS-PAGE; purified RitR in DTT, excess oxidant (20 mM) for 20 min at room temperature, iodoacetamide, 12% gel, Coomassie; dimer with H2O2 and much less with diamide; both purified; conditions: remark: other sources report otherwise

Molecule	binding [1]	binding [2]	binding [3]	binding [4]	binding [5]	binding [6]	binding [7]	binding [8]	binding [9]	binding [10]
RitR (Repressor of iron transport Regulator), wild type (from UniProt A0ACD7PPZ9 1-229)	no binding (condition: with 10 mM DTT)	binds weakly	no binding (condition: without H2O2)	no binding (condition: with 1 mM DTT, no H2O2)	no binding	–	–	–	–	–
B1	–	–	–	–	–	binds	binds	binds	binds	binds
